Results as given in article doi:10.1101/2021.03.20.435662.
These are yes or no findings as the source states them, for the method shown. Some entries that bind do so weakly or less than the wild type. Where a sequence is shown, tags or fusion partners need not be part of it.

T1: CROWDED NUCLEI 4 (CRWN4), yeast two-hybrid fusion (Arabidopsis thaliana) (UniProt Q9FLH0)
T1 sequence: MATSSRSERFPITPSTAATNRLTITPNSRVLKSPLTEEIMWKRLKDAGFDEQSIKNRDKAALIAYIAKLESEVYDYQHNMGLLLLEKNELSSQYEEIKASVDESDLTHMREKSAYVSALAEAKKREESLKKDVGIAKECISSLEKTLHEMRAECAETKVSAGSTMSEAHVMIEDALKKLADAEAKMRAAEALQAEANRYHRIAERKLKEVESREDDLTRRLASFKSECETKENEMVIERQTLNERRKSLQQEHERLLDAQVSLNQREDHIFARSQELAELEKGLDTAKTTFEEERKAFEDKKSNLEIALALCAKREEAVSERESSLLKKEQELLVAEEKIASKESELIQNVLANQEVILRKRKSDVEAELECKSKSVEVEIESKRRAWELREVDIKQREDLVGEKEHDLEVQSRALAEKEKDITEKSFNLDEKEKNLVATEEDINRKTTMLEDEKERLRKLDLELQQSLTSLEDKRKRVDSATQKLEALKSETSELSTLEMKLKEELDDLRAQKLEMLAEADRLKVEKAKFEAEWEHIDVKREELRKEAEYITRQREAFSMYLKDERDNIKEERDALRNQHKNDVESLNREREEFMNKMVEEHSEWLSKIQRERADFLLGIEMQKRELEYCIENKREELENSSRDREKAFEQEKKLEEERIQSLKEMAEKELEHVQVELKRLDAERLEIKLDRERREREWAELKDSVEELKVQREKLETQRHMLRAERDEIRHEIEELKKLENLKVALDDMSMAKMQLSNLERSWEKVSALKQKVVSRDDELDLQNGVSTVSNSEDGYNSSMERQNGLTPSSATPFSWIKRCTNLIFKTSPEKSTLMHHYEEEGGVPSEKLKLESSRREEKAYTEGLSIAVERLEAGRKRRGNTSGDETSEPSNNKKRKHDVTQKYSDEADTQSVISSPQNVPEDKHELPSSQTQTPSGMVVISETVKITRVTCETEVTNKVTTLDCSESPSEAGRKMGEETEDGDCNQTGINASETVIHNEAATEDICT

T2: KAKU4 N-terminus (1-310), yeast two-hybrid fusion (Arabidopsis thaliana) (UniProt Q949W6)
T2 sequence: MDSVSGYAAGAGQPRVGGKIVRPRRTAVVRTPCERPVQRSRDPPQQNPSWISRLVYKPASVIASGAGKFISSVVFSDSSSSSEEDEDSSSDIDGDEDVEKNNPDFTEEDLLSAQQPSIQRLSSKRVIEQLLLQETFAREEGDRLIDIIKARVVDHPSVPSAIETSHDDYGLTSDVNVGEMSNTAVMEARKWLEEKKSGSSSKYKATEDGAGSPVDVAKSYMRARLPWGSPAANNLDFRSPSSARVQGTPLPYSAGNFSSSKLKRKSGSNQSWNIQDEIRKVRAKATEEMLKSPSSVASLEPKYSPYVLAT

T3: CROWDED NUCLEI 3 (CRWN3), yeast two-hybrid fusion (Arabidopsis thaliana) (UniProt Q9CA42)
T3 sequence: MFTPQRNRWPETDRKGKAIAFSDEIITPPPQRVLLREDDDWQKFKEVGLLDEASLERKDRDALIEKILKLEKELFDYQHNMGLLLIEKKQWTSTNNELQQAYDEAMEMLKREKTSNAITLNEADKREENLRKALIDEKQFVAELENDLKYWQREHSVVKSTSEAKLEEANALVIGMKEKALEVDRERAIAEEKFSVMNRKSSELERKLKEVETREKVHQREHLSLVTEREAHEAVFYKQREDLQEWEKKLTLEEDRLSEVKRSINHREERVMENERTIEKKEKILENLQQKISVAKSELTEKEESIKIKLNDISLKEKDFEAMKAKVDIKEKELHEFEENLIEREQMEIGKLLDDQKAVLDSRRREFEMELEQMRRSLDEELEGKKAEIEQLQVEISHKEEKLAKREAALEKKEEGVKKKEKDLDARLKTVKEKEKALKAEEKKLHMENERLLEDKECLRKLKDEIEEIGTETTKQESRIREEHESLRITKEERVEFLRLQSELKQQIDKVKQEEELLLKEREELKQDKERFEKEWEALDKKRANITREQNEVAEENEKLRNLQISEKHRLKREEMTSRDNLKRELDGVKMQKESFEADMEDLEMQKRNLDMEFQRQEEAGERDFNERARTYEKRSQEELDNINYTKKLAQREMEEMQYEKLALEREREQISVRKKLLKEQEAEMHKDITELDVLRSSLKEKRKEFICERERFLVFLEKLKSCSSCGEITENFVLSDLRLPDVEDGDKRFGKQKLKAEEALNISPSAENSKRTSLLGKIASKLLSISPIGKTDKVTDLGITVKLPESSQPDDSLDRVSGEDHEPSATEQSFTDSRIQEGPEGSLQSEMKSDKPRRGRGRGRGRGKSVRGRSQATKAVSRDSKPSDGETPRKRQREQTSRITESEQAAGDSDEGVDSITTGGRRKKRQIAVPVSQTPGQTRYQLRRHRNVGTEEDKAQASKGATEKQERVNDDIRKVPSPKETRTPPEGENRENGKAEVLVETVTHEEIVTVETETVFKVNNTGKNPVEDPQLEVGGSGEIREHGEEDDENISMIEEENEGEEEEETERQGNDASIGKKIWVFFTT

B1: KAKU4 N-terminus (1-310), yeast two-hybrid fusion (domain or fragment, UniProt Q949W6-2 1-310)
chain: T2 sequence
B2: KAKU4 full-length protein (amino-acids 1-574), yeast two-hybrid fusion (protein, UniProt Q949W6-2 1-574)
chain: MDSVSGYAAGAGQPRVGGKIVRPRRTAVVRTPCERPVQRSRDPPQQNPSWISRLVYKPASVIASGAGKFISSVVFSDSSSSSEEDEDSSSDIDGDEDVEKNNPDFTEEDLLSAQQPSIQRLSSKRVIEQLLLQETFAREEGDRLIDIIKARVVDHPSVPSAIETSHDDYGLTSDVNVGEMSNTAVMEARKWLEEKKSGSSSKYKATEDGAGSPVDVAKSYMRARLPWGSPAANNLDFRSPSSARVQGTPLPYSAGNFSSSKLKRKSGSNQSWNIQDEIRKVRAKATEEMLKSPSSVASLEPKYSPYVLATDMLKGNASSLNADGAVRNEQSRALPNSAIPTSEHNQTTEANQAVKETGVLHTRSRGVGLEETFISTQGVKPSEDTNTAPQSGTAVDDFNDQDGDFIQPTSTIGNTTNAVLALGATLDPTGNSCIPKDVFETSKEADEIGASRHTSNGFPSSSPSSPAVMEGQPKPTPPEETKASQPIAEIHGDDMTVGNGSDGAINNESNDSHSSASNSSSTHEEEWLPGDQSLPNSNSASSSPGNTKVLAYSRRGRGRGRGRGRGGRGKGRAK
B3: KAKU4 C-terminus (311-574), yeast two-hybrid fusion (domain or fragment, UniProt Q949W6-2 311-574)
chain: DMLKGNASSLNADGAVRNEQSRALPNSAIPTSEHNQTTEANQAVKETGVLHTRSRGVGLEETFISTQGVKPSEDTNTAPQSGTAVDDFNDQDGDFIQPTSTIGNTTNAVLALGATLDPTGNSCIPKDVFETSKEADEIGASRHTSNGFPSSSPSSPAVMEGQPKPTPPEETKASQPIAEIHGDDMTVGNGSDGAINNESNDSHSSASNSSSTHEEEWLPGDQSLPNSNSASSSPGNTKVLAYSRRGRGRGRGRGRGGRGKGRAK

Legend:
Assay in all cases: two-hybrid
[1] = target: T1, CROWDED NUCLEI 4 (CRWN4), yeast two-hybrid fusion (Arabidopsis thaliana)
[2] = target: T2, KAKU4 N-terminus (1-310), yeast two-hybrid fusion (Arabidopsis thaliana)
[3] = target: T3, CROWDED NUCLEI 3 (CRWN3), yeast two-hybrid fusion (Arabidopsis thaliana)

| Binder | binding [1] | binding [2] | binding [3] |
| --- | --- | --- | --- |
| B1 | no binding | binds | binds |
| B2 | no binding | – | binds |
| B3 | no binding | – | no binding |
